# The list shows a part of the results.
# B1: AT5G17240(42) (Arabidopsis thaliana), Q6NQJ8 (protein)
# chain: MDLEHQTMETFLRWAAEIGISDSIDSSRFRDSCLGHSLSVSDFPDAGGRGLGAARELKKGELVLKVPRKALMTTESIIAKDLKLSDAVNLHNSLSSTQILSVCLLYEMSKEKKSFWYPYLFHIPRDYDLLATFGNFEKQALQVEDAVWATEKATAKCQSEWKEAGSLMKELELKPKFRSFQAWLWASATISSRTLHVPWDSAGCLCPVGDLFNYDAPGDYSNTPQGPESANNVEEAGLVVETHSERLTDGGFEEDVNAYCLYARRNYQLGEQVLLCYGTYTNLELLEHYGFMLEENSNDKVFIPLETSLFSLASSWPKDSLYIHQDGKLSFALISTLRLWLIPQSQRDKSVMRLVYAGSQISVKNEILVMKWMSEKCGSVLRDLPTSVTEDTVLLHNIDKLQDPELRLEQKETEAFGSEVRAFLDANCLWDVTVLSGKPIEFSRKTSRMLSKWRWSVQWRLSYKRTLADCISYCNEKMNNLLGTQDRLRDL
# Legend:
# Assay in all cases: glycan array binding signal (z-score within array); higher = stronger binding
# Conditions in all cases: glycan notation: IUPAC condensed, linker removed
# [1] = target: Neu5Ac(a2-3)Gal(b1-4)GlcNAc(b1-2)[Neu5Ac(a2-3)Gal(b1-4)GlcNAc(b1-4)]Man(a1-3)[GlcNAc(b1-4)][Neu5Ac(a2-3)Gal(b1-4)GlcNAc(b1-2)[Neu5Ac(a2-3)Gal(b1-4)GlcNAc(b1-6)]Man(a1-6)]Man(b1-4)GlcNAc(b1-4)GlcNAc
# In short: (§1)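 Glycan array binding is given as a within-array Z-score, which can be read as non-binding when negative. The arrays, 3228 of them, came from the Consortium for Functional Glycomics database and were retained only where the protein sequence was available. Z-scores were averaged across arrays of the same protein sequence at different concentrations or buffers and across linkers.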
# [2] = target: Neu5Ac(a2-3)Gal(b1-4)GlcNAc(b1-2)[Neu5Ac(a2-3)Gal(b1-4)GlcNAc(b1-4)]Man(a1-3)[GlcNAc(b1-4)][Neu5Ac(a2-3)Gal(b1-4)GlcNAc(b1-4)Man(a1-6)]Man(b1-4)GlcNAc(b1-4)GlcNAc
# In short: as §1
# [3] = target: Neu5Ac(a2-3)Gal(b1-4)GlcNAc(b1-2)[Neu5Ac(a2-3)Gal(b1-4)GlcNAc(b1-6)]Man(a1-6)[Neu5Ac(a2-3)Gal(b1-4)GlcNAc(b1-2)Man(a1-3)]Man(b1-4)GlcNAc(b1-4)GlcNAc
# In short: as §1
# [4] = target: Neu5Ac(a2-3)Gal(b1-4)GlcNAc(b1-2)[Neu5Ac(a2-3)Gal(b1-4)GlcNAc(b1-6)]Man(a1-6)[Neu5Ac(a2-3)Gal(b1-4)GlcNAc(b1-2)Man(a1-3)][GlcNAc(b1-4)]Man(b1-4)GlcNAc(b1-4)GlcNAc
# In short: as §1
# [5] = target: Neu5Ac(a2-3)Gal(b1-4)GlcNAc(b1-3)Gal
# In short: as §1
# [6] = target: Neu5Ac(a2-3)Gal(b1-4)GlcNAc(b1-3)Gal(b1-3)GlcNAc
# In short: as §1
# [7] = target: Neu5Ac(a2-3)Gal(b1-4)GlcNAc(b1-3)Gal(b1-4)GlcNAc
# In short: as §1
# [8] = target: Neu5Ac(a2-3)Gal(b1-4)GlcNAc(b1-3)Gal(b1-4)GlcNAc(b1-2)Man(a1-3)[Neu5Ac(a2-3)Gal(b1-4)GlcNAc(b1-3)Gal(b1-4)GlcNAc(b1-2)Man(a1-6)]Man(b1-4)GlcNAc(b1-4)GlcNAc
# In short: as §1
# [9] = target: Neu5Ac(a2-3)Gal(b1-4)GlcNAc(b1-3)Gal(b1-4)GlcNAc(b1-3)Gal(b1-4)GlcNAc
# In short: as §1
# [10] = target: Neu5Ac(a2-3)Gal(b1-4)GlcNAc(b1-3)Gal(b1-4)GlcNAc(b1-3)Gal(b1-4)GlcNAc(b1-2)Man(a1-3)[Neu5Ac(a2-3)Gal(b1-4)GlcNAc(b1-3)Gal(b1-4)GlcNAc(b1-3)Gal(b1-4)GlcNAc(b1-2)Man(a1-6)]GalNAc
# In short: as §1
# [11] = target: Neu5Ac(a2-3)Gal(b1-4)GlcNAc(b1-3)Gal(b1-4)GlcNAc(b1-3)GalNAc
# In short: as §1
# [12] = target: Neu5Ac(a2-3)Gal(b1-4)GlcNAc(b1-3)Gal(b1-4)GlcNAc(b1-3)[Neu5Ac(a2-3)Gal(b1-4)GlcNAc(b1-3)Gal(b1-4)GlcNAc(b1-6)]GalNAc
# In short: as §1
# [13] = target: Neu5Ac(a2-3)Gal(b1-4)GlcNAc(b1-3)Gal(b1-4)GlcNAc(b1-6)[Gal(b1-3)]GalNAc
# In short: as §1
# [14] = target: Neu5Ac(a2-3)Gal(b1-4)GlcNAc(b1-3)Gal(b1-4)[Fuc(a1-3)]GlcNAc
# In short: as §1
# [15] = target: Neu5Ac(a2-3)Gal(b1-4)GlcNAc(b1-3)GalNAc
# In short: as §1
# [16] = target: Neu5Ac(a2-3)Gal(b1-4)GlcNAc(b1-3)[Neu5Ac(a2-3)Gal(b1-4)GlcNAc(b1-6)]GalNAc
# In short: as §1
# [17] = target: Neu5Ac(a2-3)Gal(b1-4)GlcNAc(b1-6)GalNAc
# In short: as §1
# [18] = target: Neu5Ac(a2-3)Gal(b1-4)GlcNAc(b1-6)[Gal(b1-3)]GalNAc
# In short: as §1
# [19] = target: Neu5Ac(a2-3)Gal(b1-4)GlcNAc(b1-6)[Neu5Ac(a2-3)Gal(b1-3)]GalNAc
# In short: as §1
# [20] = target: Neu5Ac(a2-3)Gal(b1-4)GlcNAc6S
# In short: as §1
# [21] = target: Neu5Ac(a2-3)Gal(b1-4)[Fuc(a1-3)]GlcNAc
# In short: as §1
# [22] = target: Neu5Ac(a2-3)Gal(b1-4)[Fuc(a1-3)]GlcNAc(b1-2)Man
# In short: as §1
# [23] = target: Neu5Ac(a2-3)Gal(b1-4)[Fuc(a1-3)]GlcNAc(b1-3)Gal
# In short: as §1
# [24] = target: Neu5Ac(a2-3)Gal(b1-4)[Fuc(a1-3)]GlcNAc(b1-3)Gal(b1-4)GlcNAc
# In short: as §1
# [25] = target: Neu5Ac(a2-3)Gal(b1-4)[Fuc(a1-3)]GlcNAc(b1-3)Gal(b1-4)[Fuc(a1-3)]GlcNAc(b1-3)Gal(b1-4)[Fuc(a1-3)]GlcNAc
# In short: as §1
# [26] = target: Neu5Ac(a2-3)Gal(b1-4)[Fuc(a1-3)]GlcNAc(b1-3)GalNAc
# In short: as §1
# [27] = target: Neu5Ac(a2-3)Gal(b1-4)[Fuc(a1-3)]GlcNAc(b1-6)[Gal(b1-3)]GalNAc
# In short: as §1
# [28] = target: Neu5Ac(a2-3)Gal(b1-4)[Fuc(a1-3)]GlcNAc(b1-6)[Neu5Ac(a2-3)Gal(b1-3)]GalNAc
# In short: as §1
# [29] = target: Neu5Ac(a2-3)Gal(b1-4)[Fuc(a1-3)]GlcNAc6S
# In short: as §1
# [30] = target: Neu5Ac(a2-3)Gal6S(b1-4)GlcNAc
# In short: as §1
# [31] = target: Neu5Ac(a2-3)Gal6S(b1-4)[Fuc(a1-3)]GlcNAc
# In short: as §1
# Neu5Ac(a2-3)GalNAc = target: Neu5Ac(a2-3)GalNAc
# In short: as §1
# [32] = target: Neu5Ac(a2-3)GalNAc(b1-4)GlcNAc
# In short: as §1
# [33] = target: Neu5Ac(a2-3)[GalNAc(b1-4)]Gal(b1-4)Glc
# In short: as §1
# [34] = target: Neu5Ac(a2-3)[GalNAc(b1-4)]Gal(b1-4)GlcNAc
# In short: as §1
# [35] = target: Neu5Ac(a2-3)[GalNAc(b1-4)]Gal(b1-4)GlcNAc(b1-3)GalNAc
# In short: as §1
# [36] = target: Neu5Ac(a2-3)[Neu5Ac(a2-6)]GalNAc
# In short: as §1
binder,measurement,setting,value
B1,glycan array binding signal (z-score),[1],-0.496
same,glycan array binding signal (z-score),[2],0.141
same,glycan array binding signal (z-score),[3],-0.069
same,glycan array binding signal (z-score),[4],0.236
same,glycan array binding signal (z-score),[5],-0.368
same,glycan array binding signal (z-score),[6],-0.677
same,glycan array binding signal (z-score),[7],-0.958
same,glycan array binding signal (z-score),[8],-0.521
same,glycan array binding signal (z-score),[9],0.104
same,glycan array binding signal (z-score),[10],2.21
same,glycan array binding signal (z-score),[11],-0.577
same,glycan array binding signal (z-score),[12],-0.237
same,glycan array binding signal (z-score),[13],-0.614
same,glycan array binding signal (z-score),[14],0.084
same,glycan array binding signal (z-score),[15],-0.618
same,glycan array binding signal (z-score),[16],-0.746
same,glycan array binding signal (z-score),[17],-0.17
same,glycan array binding signal (z-score),[18],-0.303
same,glycan array binding signal (z-score),[19],-0.407
same,glycan array binding signal (z-score),[20],-0.431
same,glycan array binding signal (z-score),[21],0.101
same,glycan array binding signal (z-score),[22],-0.125
same,glycan array binding signal (z-score),[23],-0.567
same,glycan array binding signal (z-score),[24],0.975
same,glycan array binding signal (z-score),[25],0.322
same,glycan array binding signal (z-score),[26],1.21
same,glycan array binding signal (z-score),[27],0.175
same,glycan array binding signal (z-score),[28],-0.292
same,glycan array binding signal (z-score),[29],0.026
same,glycan array binding signal (z-score),[30],0.183
same,glycan array binding signal (z-score),[31],-0.198
same,glycan array binding signal (z-score),Neu5Ac(a2-3)GalNAc,0.058
same,glycan array binding signal (z-score),[32],-0.931
same,glycan array binding signal (z-score),[33],-0.783
same,glycan array binding signal (z-score),[34],-0.325
same,glycan array binding signal (z-score),[35],-0.397
same,glycan array binding signal (z-score),[36],0.005
